Measured values published in patent US20090123934A1 (published 2009).
Residue numbers refer to the chain shown, from its start. Results are given in words; binding and its absence hold for the method and conditions named. Binding seen in cells or lysates may run through a third protein. Some entries that bind do so weakly or less than the wild type. For some assays here: Sequences can lack the tags named with a protein.

Columns and labels:
Polo kinase (Polo) [1] = biological target: T1, Polo kinase (Polo) (Drosophila melanogaster, UniProt P52304 1-576, T182 detected as phosphorylated (over 80%) in Polo bound to Mtrm); assay: co-immunoprecipitation, Western blot (FIG. 4B)
T1 construct: Endogenous Polo in ovary extracts; also called polo (FBgn0003124)
T1 sequence (looked up): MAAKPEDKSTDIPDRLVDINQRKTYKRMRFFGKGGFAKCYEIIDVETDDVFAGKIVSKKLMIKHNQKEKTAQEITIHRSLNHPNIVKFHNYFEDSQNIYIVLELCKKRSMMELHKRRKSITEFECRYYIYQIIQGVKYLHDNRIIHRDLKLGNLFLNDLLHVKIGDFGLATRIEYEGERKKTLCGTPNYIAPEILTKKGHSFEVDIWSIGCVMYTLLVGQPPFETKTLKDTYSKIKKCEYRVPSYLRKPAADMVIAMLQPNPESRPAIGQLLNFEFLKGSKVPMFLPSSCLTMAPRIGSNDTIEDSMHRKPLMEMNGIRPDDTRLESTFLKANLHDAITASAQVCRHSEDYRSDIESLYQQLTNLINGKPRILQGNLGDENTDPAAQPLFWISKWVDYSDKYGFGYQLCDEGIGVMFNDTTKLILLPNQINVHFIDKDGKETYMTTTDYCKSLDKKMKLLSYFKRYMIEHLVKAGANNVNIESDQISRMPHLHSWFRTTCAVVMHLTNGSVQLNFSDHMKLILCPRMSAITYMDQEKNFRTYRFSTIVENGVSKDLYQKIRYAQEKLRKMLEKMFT

[2] = biological target: T2, GFP-Polo (Drosophila melanogaster) (UniProt P52304); assay: co-immunoprecipitation (FIG. 12)
T2 sequence (looked up): T1 sequence (looked up)

Polo kinase (Polo) [3] = biological target: T1, Polo kinase (Polo); assay: co-immunoprecipitation (FIG. 12)
Polo kinase (Polo) [4] = biological target: T1, Polo kinase (Polo); assay: co-immunoprecipitation from wild-type ovary extracts with polyclonal anti-Mtrm antibody
Polo kinase (Polo) [5] = biological target: T1, Polo kinase (Polo); assay: co-immunoprecipitation with monoclonal anti-Polo antibody from wild-type ovary extracts
[6] = biological target: T2, GFP-Polo (Drosophila melanogaster); assay: co-immunoprecipitation with anti-GFP antibody from ovary extracts of GFP-polo females
Polo kinase (Polo) [7] = biological target: T1, Polo kinase (Polo); assay: co-immunoprecipitation with anti-Mtrm antibodies, ovary extracts, mtrm null background

Measured: binding

B1: Matrimony (Mtrm) protein, wild-type (protein)
chain: MENSRTPTNKTKITLNRTPTLKERRWNTLKVNTSNVRCSTPIFGNFRSPNLSPIENMGTKGKSPVSPMRFATFKKVPTKVHPKQQQQQQHQHCHRTQLKPPPFVLPKPQEEIIEPEREIKSCSSPDTCSDDSNMETSLALESRRRSIKASNHSYVVNHAANVEQILMHMGLENYVTNFEEAHIDLVELASLERADLVKIGLNTDEDCNRIMDVLHTL
binds: Polo kinase (Polo) [1] | [2] | Polo kinase (Polo) [3] | Polo kinase (Polo) [4] | Polo kinase (Polo) [5] | [6]

B2: Mtrm^S(124)A (protein)
chain: B1 chain with S124A
binds: Polo kinase (Polo) [1] | Polo kinase (Polo) [7]
